Positions count from the first letter of the chain named. Results are given in words; binding and its absence hold for the method and conditions named. Binding seen in cells or lysates may run through a third protein. Some binding calls cover weakened binding; strength is not graded here. Tags and fused reporters may be left off the sequences shown.
Tests used:
Flag-CTC1^L1142H (human) [1] = molecular target: T1, Flag-CTC1^L1142H (human) (UniProt Q2NKJ3); assay: co-IP; Flag-CTC1 (WT or L1142H), HA-STN1 and Myc-TEN1 co-expressed in HEK293T cells; crude lysates, TEB150 buffer, overnight 4°C; blot for endogenous DNA Pol-α (Figures 7a, 7b)
T1 sequence: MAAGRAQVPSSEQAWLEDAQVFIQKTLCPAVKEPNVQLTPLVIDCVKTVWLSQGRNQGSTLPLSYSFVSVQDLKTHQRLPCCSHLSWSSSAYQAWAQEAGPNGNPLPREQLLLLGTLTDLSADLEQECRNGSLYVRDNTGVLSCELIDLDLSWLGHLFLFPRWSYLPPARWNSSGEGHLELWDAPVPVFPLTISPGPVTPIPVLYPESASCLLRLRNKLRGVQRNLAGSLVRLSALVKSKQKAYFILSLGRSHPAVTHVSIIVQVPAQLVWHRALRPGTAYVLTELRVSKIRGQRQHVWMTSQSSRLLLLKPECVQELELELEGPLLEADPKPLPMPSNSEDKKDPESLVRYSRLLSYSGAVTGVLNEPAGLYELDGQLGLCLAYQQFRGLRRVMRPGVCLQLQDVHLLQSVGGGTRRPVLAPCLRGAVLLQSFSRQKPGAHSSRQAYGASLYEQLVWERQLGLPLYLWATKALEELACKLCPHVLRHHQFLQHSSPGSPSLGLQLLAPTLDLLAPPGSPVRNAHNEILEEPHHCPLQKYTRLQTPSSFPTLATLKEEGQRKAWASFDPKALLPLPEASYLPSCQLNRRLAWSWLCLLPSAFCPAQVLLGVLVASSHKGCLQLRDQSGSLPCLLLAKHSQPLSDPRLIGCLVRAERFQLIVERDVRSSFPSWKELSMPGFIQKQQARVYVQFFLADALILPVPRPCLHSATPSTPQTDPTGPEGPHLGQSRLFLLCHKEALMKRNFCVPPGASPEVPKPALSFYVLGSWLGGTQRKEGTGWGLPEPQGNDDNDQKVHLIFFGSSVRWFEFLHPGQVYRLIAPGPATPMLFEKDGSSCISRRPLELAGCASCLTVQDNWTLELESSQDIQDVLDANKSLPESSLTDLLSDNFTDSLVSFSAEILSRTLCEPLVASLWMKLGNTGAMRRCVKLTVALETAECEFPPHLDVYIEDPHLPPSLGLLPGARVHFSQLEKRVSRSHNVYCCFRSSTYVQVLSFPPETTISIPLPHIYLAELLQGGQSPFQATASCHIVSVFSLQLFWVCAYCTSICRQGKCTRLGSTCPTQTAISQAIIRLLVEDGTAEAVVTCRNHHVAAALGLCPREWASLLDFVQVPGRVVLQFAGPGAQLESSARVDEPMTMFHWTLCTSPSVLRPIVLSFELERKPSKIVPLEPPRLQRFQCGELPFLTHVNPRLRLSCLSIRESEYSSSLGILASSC

Flag-CTC1^L1142H (human) [2] = molecular target: T1, Flag-CTC1^L1142H (human); assay: co-IP; Flag-CTC1 (WT or mutant) together with HA-STN1, no Myc-TEN1; antibody cross-linked sepharose beads incubated with crude cell lysates in TEB150 buffer (50 mM Hepes pH 7.3, 150 mM NaCl, 2 mM MgCl2, 5 mM EGTA, 0.5% Triton X-100, 10% glycerol) overnight at 4°C; immunoblot; endogenous DNA Pol-α (Figures 1f, 5a, 6a, 7a, 7b)
WT Flag-CTC1 (human) = molecular target: T2, WT Flag-CTC1 (human) (UniProt Q2NKJ3); assay: as above
T2 sequence: T1 sequence with H1142L

binding (Flag-CTC1^L1142H (human) [1]): binds
binding (Flag-CTC1^L1142H (human) [2]): binds weakly
binding (WT Flag-CTC1 (human)): binds
B1: HA-STN1 (protein, UniProt Q9H668 1-368)
chain: MQPGSSRCEEETPSLLWGLDPVFLAFAKLYIRDILDMKESRQVPGVFLYNGHPIKQVDVLGTVIGVRERDAFYSYGVDDSTGVINCICWKKLNTESVSAAPSAARELSLTSQLKKLQETIEQKTKIEIGDTIRVRGSIRTYREEREIHATTYYKVDDPVWNIQIARMLELPTIYRKVYDQPFHSSALEKEEALSNPGALDLPSLTSLLSEKAKEFLMENRVQSFYQQELEMVESLLSLANQPVIHSASSDQVNFKKDTTSKAIHSIFKNAIQLLQEKGLVFQKDDGFDNLYYVTREDKDLHRKIHRIIQQDCQKPNHMEKGCHFLHILACARLSIRPGLSEAVLQQVLELLEDQSDIVSTMEHYYTAF

From PMC6052479
